Two molecules from doi:10.1101/2025.02.28.640727 can be followed below.

These are yes or no findings as the source states them, for the method shown. In cells and extracts the contact can be indirect. Some binding calls cover weakened binding; strength is not graded here. For some assays here: Where a sequence is shown, tags or fusion partners need not be part of it.

Assay [1] concerns the target T1, TMK INTeractor 6 (TINT6; Clavata3 Insensitive Receptor Kinase 4, CIK4), pUBQ10::TINT6-3xHA (Arabidopsis thaliana) (UniProt C0LGU5).
T1 sequence: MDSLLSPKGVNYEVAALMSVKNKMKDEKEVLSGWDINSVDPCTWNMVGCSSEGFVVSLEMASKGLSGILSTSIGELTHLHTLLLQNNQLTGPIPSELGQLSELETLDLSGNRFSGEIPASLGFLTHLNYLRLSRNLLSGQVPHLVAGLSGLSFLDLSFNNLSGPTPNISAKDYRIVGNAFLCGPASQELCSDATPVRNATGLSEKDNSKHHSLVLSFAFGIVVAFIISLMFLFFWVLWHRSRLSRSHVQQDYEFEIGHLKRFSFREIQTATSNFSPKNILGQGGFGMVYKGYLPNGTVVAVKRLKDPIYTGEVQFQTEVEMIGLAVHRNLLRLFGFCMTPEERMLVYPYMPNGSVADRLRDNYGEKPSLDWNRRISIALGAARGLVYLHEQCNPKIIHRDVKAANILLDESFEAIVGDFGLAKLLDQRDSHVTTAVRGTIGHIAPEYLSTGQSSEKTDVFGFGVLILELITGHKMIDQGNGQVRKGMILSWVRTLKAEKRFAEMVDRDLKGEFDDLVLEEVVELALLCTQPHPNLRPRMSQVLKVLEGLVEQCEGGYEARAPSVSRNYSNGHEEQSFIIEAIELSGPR
The assay can be described thus: co-IP.

For assay [2], the target named is Transmembrane Kinase 1 (TMK1), p35S::TMK1-SCFP3A^N (Arabidopsis thaliana) (UniProt P43298). The assay can be described thus: split reporter.

B1: Transmembrane Kinase 1 (TMK1), FLAG-tagged (receptor, UniProt P43298 24-942)
chain: DSDGDLSAMLSLKKSLNPPSSFGWSDPDPCKWTHIVCTGTKRVTRIQIGHSGLQGTLSPDLRNLSELERLELQWNNISGPVPSLSGLASLQVLMLSNNNFDSIPSDVFQGLTSLQSVEIDNNPFKSWEIPESLRNASALQNFSANSANVSGSLPGFLGPDEFPGLSILHLAFNNLEGELPMSLAGSQVQSLWLNGQKLTGDITVLQNMTGLKEVWLHSNKFSGPLPDFSGLKELESLSLRDNSFTGPVPASLLSLESLKVVNLTNNHLQGPVPVFKSSVSVDLDKDSNSFCLSSPGECDPRVKSLLLIASSFDYPPRLAESWKGNDPCTNWIGIACSNGNITVISLEKMELTGTISPEFGAIKSLQRIILGINNLTGMIPQELTTLPNLKTLDVSSNKLFGKVPGFRSNVVVNTNGNPDIGKDKSSLSSPGSSSPSGGSGSGINGDKDRRGMKSSTFIGIIVGSVLGGLLSIFLIGLLVFCWYKKRQKRFSGSESSNAVVVHPRHSGSDNESVKITVAGSSVSVGGISDTYTLPGTSEVGDNIQMVEAGNMLISIQVLRSVTNNFSSDNILGSGGFGVVYKGELHDGTKIAVKRMENGVIAGKGFAEFKSEIAVLTKVRHRHLVTLLGYCLDGNEKLLVYEYMPQGTLSRHLFEWSEEGLKPLLWKQRLTLALDVARGVEYLHGLAHQSFIHRDLKPSNILLGDDMRAKVADFGLVRLAPEGKGSIETRIAGTFGYLAPEYAVTGRVTTKVDVYSFGVILMELITGRKSLDESQPEESIHLVSWFKRMYINKEASFKKAIDTTIDLDEETLASVHTVAELAGHCCAREPYQRPDMGHAVNILSSLVELWKPSDQNPEDIYGIDLDMSLPQALKKWQAYEGRSDLESSTSSLLPSLDNTQMSIPTRPYGFAESFTSVDGR
For B1, the binding result in assay [1] is on record as “binds”.

B2: Transmembrane Kinase 1 (TMK1), p35S::TMK1-SCFP3A^N (receptor, UniProt P43298 24-942)
chain: B1 chain
As for B2, in assay [2], the binding entry is “binds”.
